Source: PubChem BioAssay (EPA / NIEHS)
“And” between values parts separate entries of the source, which are not always exact repeats. Equal values may be shown once. The inconclusive results got no clear call from the source; some entries with a clear call stand among them for comparison. For part of these data: Potencies of inconclusive entries are doubtful fits and often do not repeat. Some compounds were tested as several samples or in several runs, with calls that do not always agree. The source made the active and inactive calls. Rule for the calls: active = hit-call score of the fitted dose curve at least 0.9, where 1 is the maximum; inconclusive = response in the unintended direction; inactive = score below 0.9.

Sequences of proteins named here, by UniProt entry; tags and fusion partners are left off. A change or cut given only in a name is not applied to a line headed by its entry.
UniProt Q96RI1: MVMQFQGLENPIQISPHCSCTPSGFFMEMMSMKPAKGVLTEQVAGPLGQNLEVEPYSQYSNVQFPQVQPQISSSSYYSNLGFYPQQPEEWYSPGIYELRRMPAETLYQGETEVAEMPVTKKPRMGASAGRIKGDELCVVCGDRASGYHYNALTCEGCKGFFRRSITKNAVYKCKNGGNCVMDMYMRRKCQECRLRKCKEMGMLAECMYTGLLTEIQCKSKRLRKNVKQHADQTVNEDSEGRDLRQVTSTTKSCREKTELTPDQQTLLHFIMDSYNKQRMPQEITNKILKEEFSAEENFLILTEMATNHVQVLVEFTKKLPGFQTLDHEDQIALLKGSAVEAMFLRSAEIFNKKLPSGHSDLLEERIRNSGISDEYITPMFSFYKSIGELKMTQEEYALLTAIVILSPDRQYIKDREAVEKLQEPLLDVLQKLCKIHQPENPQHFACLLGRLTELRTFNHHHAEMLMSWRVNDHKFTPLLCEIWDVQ
UniProt P19793: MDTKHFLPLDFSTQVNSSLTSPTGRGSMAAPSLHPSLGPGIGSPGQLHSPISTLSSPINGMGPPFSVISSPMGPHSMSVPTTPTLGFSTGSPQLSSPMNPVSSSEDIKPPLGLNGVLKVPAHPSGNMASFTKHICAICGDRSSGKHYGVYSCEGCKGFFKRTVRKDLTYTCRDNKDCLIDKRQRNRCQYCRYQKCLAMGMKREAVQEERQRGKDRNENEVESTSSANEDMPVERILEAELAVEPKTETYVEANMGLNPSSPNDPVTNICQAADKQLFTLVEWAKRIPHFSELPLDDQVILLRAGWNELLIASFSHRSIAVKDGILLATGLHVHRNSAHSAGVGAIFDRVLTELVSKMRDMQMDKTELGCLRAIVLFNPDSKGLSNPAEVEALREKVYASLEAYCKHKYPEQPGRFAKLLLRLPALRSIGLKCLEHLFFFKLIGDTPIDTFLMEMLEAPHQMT
UniProt P37231: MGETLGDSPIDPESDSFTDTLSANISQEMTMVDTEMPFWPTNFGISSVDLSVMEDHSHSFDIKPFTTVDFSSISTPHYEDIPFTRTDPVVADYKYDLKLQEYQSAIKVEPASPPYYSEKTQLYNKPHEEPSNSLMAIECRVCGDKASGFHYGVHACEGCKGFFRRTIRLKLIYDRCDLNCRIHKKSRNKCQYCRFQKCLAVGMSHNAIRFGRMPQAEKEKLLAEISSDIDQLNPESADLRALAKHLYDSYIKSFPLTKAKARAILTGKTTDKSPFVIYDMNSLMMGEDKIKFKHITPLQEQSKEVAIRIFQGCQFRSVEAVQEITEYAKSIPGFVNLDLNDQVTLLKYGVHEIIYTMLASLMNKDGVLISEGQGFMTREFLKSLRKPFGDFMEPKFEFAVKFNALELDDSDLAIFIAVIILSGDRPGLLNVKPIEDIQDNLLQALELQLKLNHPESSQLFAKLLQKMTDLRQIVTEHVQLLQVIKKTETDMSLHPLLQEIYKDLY
UniProt P04637, whole entry, looked up: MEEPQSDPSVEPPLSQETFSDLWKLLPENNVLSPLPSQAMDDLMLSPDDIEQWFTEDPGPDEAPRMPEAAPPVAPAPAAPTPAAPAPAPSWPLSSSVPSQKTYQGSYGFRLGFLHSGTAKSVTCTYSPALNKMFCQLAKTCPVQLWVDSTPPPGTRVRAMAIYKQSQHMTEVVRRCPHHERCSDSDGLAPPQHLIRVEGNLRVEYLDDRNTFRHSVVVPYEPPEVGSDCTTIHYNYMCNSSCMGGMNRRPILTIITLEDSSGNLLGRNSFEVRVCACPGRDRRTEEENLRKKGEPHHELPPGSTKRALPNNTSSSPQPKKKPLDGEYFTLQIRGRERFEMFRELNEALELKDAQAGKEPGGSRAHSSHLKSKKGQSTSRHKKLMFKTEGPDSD

Key:
[1] = molecular target: Bile acid receptor (Homo sapiens) (UniProt Q96RI1); assay: OT_FXR_FXRSRC1_1440: Odyssey Thera (OT) 24-hour HEK293T Protein-Complementation Assay for Farnesoid X receptor/SRC-1 Co-activator (AID 2283384)
Outline: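 HEK293T cells, 24 h after chemical dosing. FXR–SRC-1 coactivator interaction read as fluorescence from protein-fragment complementation of a split reporter. Gain of signal fitted against DMSO baseline.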

[2] = molecular target: Retinoic acid receptor RXR-alpha (Homo sapiens) (UniProt P19793); assay: OT_NURR1_NURR1RXRa_0480: Odyssey Thera (OT) 8-hour HEK293T Protein Complementation Assay for Nurr1/retinoid X receptor (RXR) (AID 2283385)
Outline: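 HEK293T cells expressing Nurr1 and RXRα fused to reporter fragments (protein-fragment complementation); fluorescence measured 8 h after dosing. Gain of signal fitted relative to DMSO.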

[3] = molecular target: Peroxisome proliferator-activated receptor gamma (Homo sapiens) (UniProt P37231); assay: OT_PPARg_PPARgSRC1_0480: Odyssey Thera (OT) 8-hour Protein-Complementation Assay for Peroxisome Proliferator-activated Receptor Gamma / SRC-1 Co-activator (AID 2283387);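 note: nuclear to cytoplasmic split Venus YFP fluorescence ratio reporting PPARg SRC-1 interaction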
Outline: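 HEK293T transiently transfected with PPARg and SRC-1 fused to Venus YFP fragments, compounds 8 h at 37C. Fixed, Draq5-stained cells imaged; nuclear/cytoplasmic 488 nm fluorescence ratio over at least 350 cells per image; gain fitted versus DMSO.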

[4] = molecular target: Cellular tumor antigen p53 (Homo sapiens) (UniProt P04637); assay: TOX21_p53_BLA_p2_ratio: Tox21 HCT-116 p53 Agonism Beta-lactamase Assay, Ratio, Phase 2 (AID 2283592)
Outline: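 Gain-of-signal p53 agonism was scored from the beta-lactamase FRET ratio (460/530 nm, 405 nm excitation) in HCT116 cells treated 16 h at 37C, 5% CO2, with DMSO serving as negative control and baseline.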

[5] = molecular target: Cellular tumor antigen p53 (Homo sapiens) (UniProt P04637); assay: TOX21_p53_BLA_p3_ratio: Tox21 HCT-116 p53 Agonism Beta-lactamase Assay, Ratio, Phase 3 (AID 2283596)
Outline: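 HCT116 p53-bla cells (4000/well) given compound in DMSO (217-fold dilution) after 5 h, incubated 16 h at 37C. CCF4-AM substrate 2 h at room temperature; 460/530 nm emission ratio, gain fitted against DMSO.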

[6] = TOX21_p53_BLA_p4_viability: Viability Assessment in the Tox21 HCT-116 p53 Agonism Beta-lactamase Assay, Phase 4 (AID 2283597);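 note: hits lower the luminescence signal meaning cytotoxicity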
Outline: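 Following a 16 h exposure at 37C, the treated HCT116 wells were first read for the FRET ratio. They were then lysed with CellTiter-Glo, and ATP luminescence was recorded after 30 min at room temperature.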

[7] = molecular target: Cellular tumor antigen p53 (Homo sapiens) (UniProt P04637); assay: TOX21_p53_BLA_p5_ratio: Tox21 HCT-116 p53 Agonism Beta-lactamase Assay, Ratio, Phase 5 (AID 2283599)
Outline: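 HCT-116 cells carrying a p53-inducible beta-lactamase reporter were seeded at 4000 cells/well and dosed after 5 h with compound in DMSO (217-fold dilution). After 16 h at 37C, CCF4-AM substrate was added for 2 h, and the 460/530 nm emission ratio was scored as gain-of-signal versus DMSO.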

[8] = TOX21_p53_BLA_p5_viability: Viability Assessment in the Tox21 HCT-116 p53 Agonism Beta-lactamase Assay, Phase 5 (AID 2283600)
Outline: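 After the 460/530 nm beta-lactamase measurement, the wells received an ATP-detection luciferase reagent; signal was read 30 min later at RT. Compound treatment lasted 16 h on cells pre-incubated 5 h post-seeding.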

[9] = molecular target: Cellular tumor antigen p53 (Homo sapiens) (UniProt P04637); assay: TOX21_p53_BLA_p4_ratio: Tox21 HCT-116 p53 Agonism Beta-lactamase Assay, Ratio, Phase 4 (AID 2283601)
Outline: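 HCT116 cells carrying an inducible beta-lactamase reporter were plated at 4000 cells/well, rested 5 h, then exposed to compounds in DMSO (217-fold dilution) for 16 h at 37C. CCF4-AM substrate was loaded 2 h at room temperature; 460/530 nm emission ratio scored gain-of-signal versus DMSO.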

[10] = molecular target: Retinoic acid receptor RXR-alpha (Homo sapiens) (UniProt P19793); assay: OT_NURR1_NURR1RXRa_1440: Odyssey Thera (OT) 24-hour HEK293T Protein Complementation Assay for Nurr1/retinoid X receptor (RXR) (AID 2283386)
Outline: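 HEK293T protein-fragment complementation of Nurr1 and RXRα fused to reporter fragments; compounds 24 h. Fluorescence gain from reconstituted reporter fitted versus DMSO.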

[11] = TOX21_p53_BLA_p2_viability: Viability Assessment in the Tox21 HCT-116 p53 Agonism Beta-lactamase Assay, Phase 2 (AID 2283591);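 note: compound exposure lasted 16 h at 37 °C; actives lower the ATP signal meaning cytotoxicity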
Outline: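 HCT-116 p53-bla cells (4000/well) rested 5 h at 37C, then received compounds in DMSO (217-fold dilution) for 16 h at 37C, 5% CO2. After the CCF4 read, CellTiter-Glo was added; ATP luminescence was read after 30 min at room temperature.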

[12] = TOX21_p53_BLA_p3_viability: Viability Assessment in the Tox21 HCT-116 p53 Agonism Beta-lactamase Assay, Phase 3 (AID 2283593);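 note: cells exposed to compound for 16 h before reading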
Outline: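 HCT-116 cells (4000/well) rested 5 h at 37C, then got DMSO compounds by pin tool (217-fold dilution) for 16 h at 37C, 5% CO2. After the bla read, CellTiter-Glo was added and luminescence read at 30 min, room temperature.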

[13] = molecular target: Bile acid receptor (Homo sapiens) (UniProt Q96RI1); assay: OT_FXR_FXRSRC1_0480: Odyssey Thera (OT) 8-hour HEK293T Protein-Complementation Assay for Farnesoid X receptor/SRC-1 Co-activator (AID 2283383)
Outline: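 HEK293T protein-fragment complementation assay: FXR and SRC-1 coactivator are fused to reporter fragments, and their interaction restores a fluorescent reporter. Readout was taken 8 h after dosing, with gain of signal fit relative to DMSO.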

[14] = ATG_XTT_Cytotoxicity: Cytotoxicity Assessment in the Attagene TRANS-FACTORIAL HepG2 Assay (AID 2283584);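 note: cells exposed to compound for 24 h before reading; active means loss of viability signal versus DMSO baseline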
Outline: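 Viability endpoint from XTT after 24 h chemical exposure of reporter-transfected human HepG2 liver cells; signal loss fitted relative to DMSO negative control.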

Measured: AC50

c1nc[nH]n1
inactive: [5] | [8]
inconclusive: [1] 23.5 µM | [2] 2.95 µM and 50 µM | [3] 89.1 µM | [4] 45.3 µM | [5] 45.3 µM | [6] 15.6 µM and 68.5 nM | [7] 45.3 µM | [8] 46.1 µM | [9] 46.1 µM

COc1cc(OC)nc(NC(=O)NS(=O)(=O)c2ncccc2OCC(F)(F)F)n1
inactive: [1] | [10] | [7]
inconclusive: [2] 2.97 µM and 50 µM | [4] 76.7 µM | [8] 44.1 µM

C=CCN=C=S
inconclusive: [1] 51.5 µM | [10] 51.5 µM | [11] 47.5 µM and 47 µM | [4] 23 µM | [12] 47.5 µM and 23 µM | [7] 47.5 µM and 47 µM | [8] 0.00162 µM | [9] 47 µM
inactive: [2] | [11] | [5] | [8] | [9]

ClC(Cl)=C(c1ccc(Cl)cc1)c1ccc(Cl)cc1
inactive: [11] | [6]
active: [1] 93 µM and 84.9 µM and 88.2 µM | [2] 78.3 µM [middle of 4 runs] | [10] 79.2 µM and 79.5 µM and 80 µM | [11] 55.6 µM | [4] 87.7 µM | [12] 58.4 µM

CCC(C)(c1ccc(O)cc1)c1ccc(O)cc1
inconclusive: [3] 38.4 µM and 77.2 µM
inactive: [1] | [2] | [7]
active: [10] 92.5 µM and 87.7 µM | [6] 77.1 µM | [7] 75.7 µM | [9] 84.6 µM and 82.3 µM

CC1(C)C(C(=O)OC(C#N)c2cccc(Oc3ccccc3)c2)C1(C)C (stereo not given)
active: [13] 2.05 µM
inactive: [6] | [7] | [8]
inconclusive: [10] 5.97 µM | [4] 46.1 µM | [5] 46.1 µM

COc1ccc(-c2ccccc2)cc1NNC(=O)OC(C)C
inconclusive: [3] 79.7 µM
inactive: [13] | [10] | [11] | [12]

CO/N=C(/C1=NOCCO1)c1ccccc1Oc1ncnc(Oc2ccccc2Cl)c1F
active: [1] 12.7 µM | [4] 3.05 µM
inactive: [12] | [8]
inconclusive: [2] 88.2 µM | [10] 836 nM and 50 µM

COc1nc(NC(C)C)nc(NC(C)C)n1
inconclusive: [1] 0.0134 µM | [2] 2.19 µM and 29.6 µM | [11] 27.5 µM and 9.17 µM | [12] 46.1 µM and 46.2 µM | [5] 76.9 µM | [6] 52.8 nM and 46.2 µM | [7] 46.2 µM | [8] 46.1 µM and 13.8 µM | [9] 79.6 µM

CCC[CH2][Sn]([Cl])([CH2]CCC)[CH2]CCC
inconclusive: [2] 0.0304 µM | [10] 0.0411 µM
active: [1] 82 µM | [14] 1.8 µM | [11] 1.22 µM and 1.04 µM | [4] 31.8 µM and 46 µM | [5] 25.6 µM and 28.6 µM | [6] 917 nM and 983 nM | [7] 36.5 µM and 31.8 µM | [8] 1.52 µM | [9] 27.7 µM and 25.6 µM

O=C(Nc1ccccc1)Nc1cnns1
active: [4] 64.1 µM | [9] 52.9 µM
inactive: [11] | [5] | [7]
inconclusive: [13] 50 µM | [10] 27.1 µM and 25.1 µM | [8] 46.1 µM

CN(C)c1nc(=O)n(C2CCCCC2)c(=O)n1C
inactive: [1] | [10]
inconclusive: [2] 50 µM

CC(C)(C)C(O)/C(=C\c1ccc(Cl)cc1Cl)n1cncn1 (stereo not given)
inconclusive: [1] 87.5 µM | [2] 87.4 µM and 83.7 µM | [10] 82.8 µM and 40.6 µM
active: [14] 56.3 µM | [6] 51.8 µM
inactive: [7] | [8]

COP(=S)(OC)Oc1ccc([N+](=O)[O-])c(C)c1
inconclusive: [10] 50 µM
active: [1] 29.8 µM
inactive: [2]

Part of the list above in order of length of the SMILES, ascending.
O=C(Nc1ccccc1)Nc1cnns1
active: [4] 64.1 µM | [9] 52.9 µM
inactive: [11] | [5] | [7]
inconclusive: [13] 50 µM | [10] 27.1 µM and 25.1 µM | [8] 46.1 µM

CN(C)c1nc(=O)n(C2CCCCC2)c(=O)n1C
inactive: [1] | [10]
inconclusive: [2] 50 µM

CCC[CH2][Sn]([Cl])([CH2]CCC)[CH2]CCC
inconclusive: [2] 0.0304 µM | [10] 0.0411 µM
active: [1] 82 µM | [14] 1.8 µM | [11] 1.22 µM and 1.04 µM | [4] 31.8 µM and 46 µM | [5] 25.6 µM and 28.6 µM | [6] 917 nM and 983 nM | [7] 36.5 µM and 31.8 µM | [8] 1.52 µM | [9] 27.7 µM and 25.6 µM
